Results are given in words; binding and its absence hold for the method and conditions named. In cells and extracts the contact can be indirect. A yes stands for co-enrichment or nearness to the bait. Other partners may have been found.
Target: mBidWT–BirA* (mouse) (UniProt P70444)
Assay: proximity labelling; BioID in HeLa cells stably expressing BirA* baits; 50 µM biotin for 16 h with nocodazole (mitotic enrichment) or DMSO (unsynchronised); lysis in RIPA, streptavidin-affinity purification, label-free LC–MS/MS (Progenesis QI); enrichment against the paired venus-BirA* control; three independent experiments

The chains behind the UniProt entries cited, without tags or fusion partners.
UniProt P70444: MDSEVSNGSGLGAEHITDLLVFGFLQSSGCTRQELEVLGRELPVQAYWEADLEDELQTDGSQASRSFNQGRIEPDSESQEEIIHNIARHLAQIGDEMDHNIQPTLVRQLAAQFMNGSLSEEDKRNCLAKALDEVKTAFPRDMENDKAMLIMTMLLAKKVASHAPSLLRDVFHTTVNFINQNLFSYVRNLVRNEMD

binding: binds
B1: Septin 9 (protein, UniProt Q9UHD8 1-586)
chain: MKKSYSGGTRTSSGRLRRLGDSSGPALKRSFEVEEVETPNSTPPRRVQTPLLRATVASSTQKFQDLGVKNSEPSARHVDSLSQRSPKASLRRVELSGPKAAEPVSRRTELSIDISSKQVENAGAIGPSRFGLKRAEVLGHKTPEPAPRRTEITIVKPQESAHRRMEPPASKVPEVPTAPATDAAPKRVEIQMPKPAEAPTAPSPAQTLENSEPAPVSQLQSRLEPKPQPPVAEATPRSQEATEAAPSCVGDMADTPRDAGLKQAPASRNEKAPVDFGYVGIDSILEQMRRKAMKQGFEFNIMVVGQSGLGKSTLINTLFKSKISRKSVQPTSEERIPKTIEIKSITHDIEEKGVRMKLTVIDTPGFGDHINNENCWQPIMKFINDQYEKYLQEEVNINRKKRIPDTRVHCCLYFIPATGHSLRPLDIEFMKRLSKVVNIVPVIAKADTLTLEERVHFKQRITADLLSNGIDVYPQKEFDEDSEDRLVNEKFREMIPFAVVGSDHEYQVNGKRILGRKTKWGTIEVENTTHCEFAYLRDLLIRTHMQNIKDITSSIHFEAYRVKRLNEGSSAMANGMEEKEPEAPEM

— article PMC7567853
